From article PMC12998938, “Neutrophil store-operated Ca^2+ entry: A correctable biomarker of cystic fibrosis lung disease progression” (Journal of cystic fibrosis : official journal of the …, 2025) come the findings set out here.

In the series the test system is SOCE in CF neutrophils vs FEV1pp. In words: Correlation of thapsigargin-induced Ca2+ response with lung function (FEV1pp). More on the design: species or system human. As to conditions: pwCF, linear regression.

Consider `C/C=C(/C)C(=O)O[C@H]1C(C)=C2[C@H]([C@@H]1OC(=O)CCCCCCC)[C@@](C)(OC(C)=O)C[C@H](OC(=O)CCC)[C@@]1(O)[C@H]2OC(=O)[C@@]1(C)O` [thapsigargin, reference compound], for which the “correlation of peak thapsigargin-induced Ca2+ entry with FEV1pp” value (Fig. 5B) is recorded as “significant inverse correlation with lung function”.

With “VHDIVNMLIRG [ELD607, size-optimized SPLUNC1/α6 peptidomimetic]”, the “correlation of ELD607-sensitive Ca2+ influx with FEV1pp” value (Fig. 5D) was “inversely correlated against FEV1pp”. Under “Fig. 5F”, the “correlation of ELD607-insensitive fraction with FEV1pp” value is “did not significantly correlate with lung function”.
